The chains are these.
B1: Rum1 (protein, UniProt P40380 1-230)
chain: MEPSTPPMRGLCTPSTPESPGSFKGVIDASLEGNSSIMIDEIPESDLPAPQVSTFPPTPAKTPKKQLLPNLMLQDRSNSLERCMEEDREHNPFLSSSDNQLLSRKKRKPTPPPSDGLYYVFRGKRIKKSFRPGTDLSTFKPKLLFADSAPSSSSDNPTSSVDLNDYSQIGILPPNLNSIGNKMFSLKSRVPSSSSGSFVAPPPQMRLPAYSSPQKSRSNTKDENRHNLLR
B2: Cig1 (protein, UniProt P24865 1-415)
chain: MDVSTQTRHATYFQDENQLQKDHIYVKKKSHIKLNTGVRAPFKAVDNINQQDEPTLIEGNNESSISSSTGDTFEEDFAYQDKVEIEERSIRSTPKSIGDDDLENREGSFDAPEGILTHGKHRLPTIPEWTKEDLAALSEAAARLQANPSPEDIETDPSMVPDYDPEIFHYMQSLERKLAPPPNYMSVQQEIDWVTRHMLVDWIVQVQIHFRLLPETLFLAVNLIDRFLSIKVVSLQKVQLVGLSALLIACKYEEIHPPSIYNFAHVVQGIFTVDEIIRAERYMLMLLDFDISWPGPMSFLRRISRADSYDHDIRMLAKYLQEVTLMDEIFIGAHISFIAATAYYLSMQMLGHLDWTPCHVYYSGYTARQLKPCAIIIMECLVDAPNHHNAIYRKYSENRMKRVSAFAHNWVLSVI
B3: Cig2 (protein, UniProt P36630 1-411)
chain: MALYSISKPVGSKINKHSYQDENTLVGKQALSKGTEKTKLSTNFEINLPRRTVLSDVSNVGKNNADEKDTKKAKRSFDESNLSTNEEADKPVESKFVKKLKVYSKNADPSVETLQKDRVSNVDDHLSSNPLMAEEYAPEIFEYIRKLDLKCLPNPKYMDQQKELTWKMREILNEWLVEIHSNFCLMPETLYLAVNIIDRFLSRRSCSLSKFQLTGITALLIASKYEEVMCPSIQNFVYMTDGAFTVEDVCVAERYMLNVLNFDLSYPSPLNFLRKISQAEGYDAQTRTLGKYLTEIYLFDHDLLRYPMSKIAAAAMYLSRRLLRRGPWTPKLVESSGGYEEHELKEIAYIMLHYHNKPLEHKAFFQKYSSKRFLKASIFVHQLVRQRYSVNRTDDDDLQSEPSSSLTNDGH
B4: Cdc13 (protein, UniProt P10815 1-482)
chain: MTTRRLTRQHLLANTLGNNDENHPSNHIARAKSSLHSSENSLVNGKKATVSSTNVPKKRHALDDVSNFHNKEGVPLASKNTNVRHTTASVSTRRALEEKSIIPATDDEPASKKRRQPSVFNSSVPSLPQHLSTKSHSVSTHGVDAFHKDQATIPKKLKKDVDERVVSKDIPKLHRDSVESPESQDWDDLDAEDWADPLMVSEYVVDIFEYLNELEIETMPSPTYMDRQKELAWKMRGILTDWLIEVHSRFRLLPETLFLAVNIIDRFLSLRVCSLNKLQLVGIAALFIASKYEEVMCPSVQNFVYMADGGYDEEEILQAERYILRVLEFNLAYPNPMNFLRRISKADFYDIQTRTVAKYLVEIGLLDHKLLPYPPSQQCAAAMYLAREMLGRGPWNRNLVHYSGYEEYQLISVVKKMINYLQKPVQHEAFFKKYASKKFMKASLFVRDWIKKNSIPLGDDADEDYTFHKQKRIQHDMKDEEW
B5: Suc1 (protein, UniProt P08463 1-113)
chain: MSKSGVPRLLTASERERLEPFIDQIHYSPRYADDEYEYRHVMLPKAMLKAIPTDYFNPETGTLRILQEEEWRGLGITQSLGWEMYEVHVPEPHILLFKREKDYQMKFSQQRGG

Amino acid sequences for entries named in this document (tags omitted).
UniProt P04551: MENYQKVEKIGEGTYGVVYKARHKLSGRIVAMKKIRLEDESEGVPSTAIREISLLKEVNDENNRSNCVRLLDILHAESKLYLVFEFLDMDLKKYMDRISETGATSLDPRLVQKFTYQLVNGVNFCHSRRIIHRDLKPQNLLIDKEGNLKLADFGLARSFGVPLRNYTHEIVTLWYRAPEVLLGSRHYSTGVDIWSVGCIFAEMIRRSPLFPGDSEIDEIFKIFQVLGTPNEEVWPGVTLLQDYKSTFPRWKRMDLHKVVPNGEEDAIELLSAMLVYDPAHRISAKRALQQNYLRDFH

Results are given in words; binding and its absence hold for the method and conditions named. In cells and extracts the contact can be indirect. These calls come from enrichment with a bait or labelling near it, and not all partners need be listed.

In this test the target is Cdc2-GFP (S. pombe) (UniProt P04551). Kind of test: affinity purification with mass spectrometry.
With B1, the binding result is “binds”.

On to B2, for which the binding result is reported as “binds”.

Regarding B3, the binding entry is recorded as “binds”.

B4: the binding result is reported as “binds”.

As for B5, the binding entry is “binds”.

For the origin of these results see doi:10.1101/2025.07.04.663185 (bioRxiv, 2025).
